Assay results published in publication doi:10.1101/2022.09.16.508286.
No constants are given. Whether binding was seen depends on the method and setting. In cells and extracts the contact can be indirect. A result given as binding can be weak or reduced; the word gives no strength.

T1: SLC25A46 (human (endogenous in fibroblasts)) (UniProt Q96AG3)
T1 sequence: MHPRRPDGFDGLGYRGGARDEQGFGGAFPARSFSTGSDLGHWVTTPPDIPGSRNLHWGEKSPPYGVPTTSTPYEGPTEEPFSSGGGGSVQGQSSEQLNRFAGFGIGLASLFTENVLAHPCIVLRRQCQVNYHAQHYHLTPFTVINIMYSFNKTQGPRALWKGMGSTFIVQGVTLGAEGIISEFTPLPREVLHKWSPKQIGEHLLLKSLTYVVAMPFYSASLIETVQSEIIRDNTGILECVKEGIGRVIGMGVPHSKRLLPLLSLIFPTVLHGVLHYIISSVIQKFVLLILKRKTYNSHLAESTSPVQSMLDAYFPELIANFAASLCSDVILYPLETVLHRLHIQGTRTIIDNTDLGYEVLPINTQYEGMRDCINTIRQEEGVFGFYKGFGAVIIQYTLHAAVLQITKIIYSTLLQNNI

B1: SLC25A46 (protein, UniProt Q96AG3 1-418)
chain: T1 sequence

Columns and labels:
[1] = target: T1, SLC25A46 (human (endogenous in fibroblasts)); experiment: co-IP
[2] = target: OPA1 (human (endogenous in fibroblasts)); experiment: co-IP

Molecule | binding [1] | binding [2]
OPA1 (human (endogenous in fibroblasts)) | binds | 
B1 |  | binds
